Taken from: PubChem BioAssay AID686938 (Drosophila RNAi Screening Center, 2013)
The deposit covers about 23,000 reagents; this is a random part of those with a known target gene and a result. Over the whole deposit, 75 (0.33%) were called active. 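Raw plate signals without normalisation; calls rest on plate z-scores that were not deposited; ratio present for only 364 wells.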 Unmarked entries are inactive. A plus sign joins genes that one reagent is predicted to hit. Not stated in the record: the dose of the treatment.

Aim: 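Looking for CRAC channel components and the factors controlling them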 (primary screen)
System: Drosophila S2R+ cells
Reagents: long dsRNA against Drosophila genes, about 0.25 µg dsRNA per well, roughly 10,000 cells
Time to read-out: 5 days of knock-down before the calcium assay
Conditions: thapsigargin (SERCA pump blocker) to empty calcium stores; entry signal taken 4 min after adding it
Measurement: 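Duplicate raw fluo-4 intensities per well from a plate reader, at rest and four minutes after thapsigargin emptied calcium stores; entry-to-rest ratio filled for only some wells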
Direction: calcium entry signal: higher = stronger calcium signal after store depletion; entry to resting ratio: higher = more calcium entry relative to resting level; resting calcium signal: higher = higher resting calcium signal
Call rule: 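Hit if the duplicate-averaged plate z-score for entry over resting signal is under −3; wells with weak total dye signal (Fmax z < −2) or more than 5 off-targets removed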
Calls: active = strongly reduced calcium entry; inactive = no strong reduction

The first 4 entries, to show the layout:
Target gene | amplicon | calcium entry signal, replicate 1 (fluorescence units) | calcium entry signal, replicate 2 (fluorescence units) | entry to resting ratio | resting calcium signal, replicate 1 (fluorescence units) | resting calcium signal, replicate 2 (fluorescence units)
CG30385 | DRSC06031 | 3.33e7 | 3.46e7 | – | 1.48e7 | 1.44e7
CG9636 | DRSC16529 | 2.47e7 | 3.28e7 | – | 1.16e7 | 1.43e7
SA2 | DRSC08385 | 3.19e7 | 4.01e7 | – | 1.44e7 | 1.62e7
Nup160 + RfC38 | DRSC01997 | 3.50e7 | – | – | 1.86e7 | –

Results, from the start:
Target gene | amplicon | calcium entry signal, replicate 1 (fluorescence units) | calcium entry signal, replicate 2 (fluorescence units) | entry to resting ratio | resting calcium signal, replicate 1 (fluorescence units) | resting calcium signal, replicate 2 (fluorescence units)
CG30385 | DRSC06031 | 3.33e7 | 3.46e7 | – | 1.48e7 | 1.44e7
CG9636 | DRSC16529 | 2.47e7 | 3.28e7 | – | 1.16e7 | 1.43e7
SA2 | DRSC08385 | 3.19e7 | 4.01e7 | – | 1.44e7 | 1.62e7
Nup160 + RfC38 | DRSC01997 | 3.50e7 | – | – | 1.86e7 | –
CG3632 | DRSC19137 | 3.21e7 | 4.71e7 | – | 1.59e7 | 2.09e7
CG3632 | DRSC19871 | 4.22e7 | 3.70e7 | – | 1.88e7 | 1.79e7
CG32643 | DRSC18962 | 3.08e7 | 3.39e7 | – | 1.46e7 | 1.60e7
hfp | DRSC08731 | 2.12e7 | 2.72e7 | – | 1.44e7 | 1.57e7
hfp | DRSC08732 | 3.05e7 | 5.16e7 | – | 1.58e7 | 2.18e7
hfp | DRSC22408 | 3.10e7 | 2.94e7 | – | 1.69e7 | 1.22e7
PHDP | DRSC04635 | 4.60e7 | 4.66e7 | – | 2.19e7 | 2.29e7
b6 | DRSC18740 | 3.30e7 | 4.60e7 | 2 | 1.67e7 | 1.78e7
heph | DRSC14082 | 4.06e7 | 2.77e7 | – | 1.71e7 | 1.20e7
heph | DRSC14085 | 4.63e7 | 3.01e7 | – | 1.95e7 | 1.28e7
heph | DRSC15436 | 3.59e7 | 4.26e7 | 2 | 1.79e7 | 1.98e7
heph | DRSC16783 | 3.76e7 | 4.77e7 | 2 | 1.87e7 | 1.98e7
Art1 | DRSC16063 | 4.42e7 | 4.66e7 | – | 1.85e7 | 2.21e7
Ephrin | DRSC17165 | 3.83e7 | 5.86e7 | 2 | 1.90e7 | 2.24e7
CG7272 | DRSC10795 | 3.05e7 | 5.18e7 | – | 1.53e7 | 2.17e7
bonsai | DRSC04453 | 4.08e7 | 3.84e7 | – | 2.04e7 | 1.66e7
Jon44E | DRSC07216 | 4.78e7 | 4.81e7 | – | 2.30e7 | 2.08e7
Nipped-A | DRSC04882 | 2.92e7 | 4.58e7 | – | 1.41e7 | 1.98e7
Nipped-A | DRSC04883 | 2.91e7 | 2.54e7 | – | 1.80e7 | 1.63e7
Nipped-A | DRSC04884 | 2.98e7 (active) | 3.08e7 | – | 2.03e7 | 1.91e7
Nipped-A | DRSC07738 | 2.52e7 | 2.47e7 | – | 1.55e7 | 1.45e7
Nipped-A | DRSC22386 | 2.29e7 | 3.82e7 | – | 1.41e7 | 2.71e7
Sod1 | DRSC11286 | 3.05e7 | 5.26e7 | – | 1.63e7 | 2.26e7
DIP-alpha | DRSC17891 | 4.31e7 | 2.73e7 | – | 1.99e7 | 1.46e7
DIP-alpha | DRSC17892 | 4.56e7 | 4.87e7 | 1.8 | 2.59e7 | 2.86e7
DIP-alpha | DRSC23275 | 4.20e7 | 4.13e7 | – | 1.97e7 | 1.79e7
Uhg2 + snoRNA:Me18S-G1620 + snoRNA:U14:30Ea | DRSC01100 | 4.22e7 | 4.19e7 | – | 2.02e7 | 1.93e7
LanA | DRSC11207 | 4.27e7 | 3.32e7 | – | 2.75e7 | 1.47e7
CG10365 | DRSC14234 | 4.38e7 | 3.69e7 | – | 1.92e7 | 1.68e7
Pi3K21B | DRSC00771 | 4.07e7 | – | – | 2.17e7 | –
enok | DRSC04096 | 3.33e7 | – | – | 1.69e7 | –
CkIIalpha | DRSC11946 | 2.42e7 | 3.43e7 | – | 1.23e7 | 1.71e7
cry | DRSC16928 | 3.15e7 | 3.47e7 | – | 3.88e7 | 1.54e7
RpL7A | DRSC18709 | 1.05e7 | 1.13e7 | – | 8.52e6 | 8.79e6
CG14257 | DRSC14752 | 3.26e7 | 5.17e7 | – | 1.77e7 | 2.25e7
CG31638 | DRSC02269 | 2.08e7 | 1.83e7 | – | 1.17e7 | 1.04e7
CG31638 | DRSC03259 | 2.40e7 | 1.96e7 | – | 1.28e7 | 9.74e6
